The exact form of at least one protein or probe is not confirmed. No signal at the amounts used counts as a negative.
Target: His-SlPIF3 (bHLH domain) (Solanum lycopersicum) (UniProt A0A3Q7EQR7)
Test: EMSA
Conditions: LightShift Chemiluminescent EMSA Kit (Thermo Fisher); pH and temperature not stated; recombinant protein; residues 421-535; protein details: His (pET-32a vector); label: biotin (3' end labelling kit)

Sequence | binding result
AATTCATCTTCTCCACGTGACAACAACAAA (double strand) [ProSlGLT1-B] | binds
AATTCATCTTCTCGTGACAACAACAAA (double strand) [mProSlGLT1-B] | no binding
ATGAAATTGCCACGTGTCATTAAACGTGAG (double strand) [ProSlMYB-Like-B] | binds
ATGAAATTGCCCCCTGTCATTAAACGTGAG (double strand) [mProSlMYB-Like-B] | no binding
CTTTTTAATCACACGTGATCTTATATCTCA (double strand) [ProSlCWIN9-B] | binds
CTTTTTAATCACCCCCCATCTTATATCTCA (double strand) [mProSlCWIN9-B] | no binding
TGCCACTTTCTCATGTGAAACTCAAAATTT (double strand) [ProSlToFZY2-B] | no binding

— paper PMC9299586
